Test results from PubChem BioAssay AID1224856 (National Center for Advancing Translational Sciences (NCATS), 2016).
This list was built around the results that the source calls inconclusive (neither active nor inactive); the mix of calls is not that of the screen. Potencies beside an inconclusive call are fits to weak or partial responses and may not hold up. Calls of active or inactive are those of the source. The call rests on the fitted dose curve; in most records, active means well fitted curve in the direction sought with a large enough effect; inconclusive means small, poorly fitted or top-dose-only effect, or another doubt; inactive means no such curve, though single readings can be large or run the other way.

Experiment: Cell viability assay for measurement of the protective activity of small molecules against cell death caused by Zika virus infection in human astrocytes
Conditions: human astrocytes ZIKV-induced death, ATP luminescence, 72 h; series mostly up to 46.1 µM; protection from virus-induced death: at the top concentration
From the text: National Center for Advancing Translational Sciences [NCATS] Johns Hopkins University School of Medicine Florida State University Assay Overview: Zika virus infection causes cell death in certain cell types including human neural progenitor cells (hNPCs), astrocytes, and astrocytoma cell line (SNB-19). This cell viability assay measures the ATP content (level) in human astrocytes using a luminescence readout that is proportional to viable cell numbers. Decrease in the luminescence signal after Zika virus infection indicates the cell death caused by Zika virus. Small molecule inhibitors […] the decreased luminescence signal after Zika virus infection, indicating the protective effect of that small molecule on the cell death caused by Zika virus infection. This observed protective effect of small molecules against Zika virus induced cell death may result from inhibition of virus replication or cellular response to the virus infection.
Assay Protocol Summary: The medium for astrocytes contains AM basal medium (ScienCell, Cat.# 1801), AGS (ScienCell, Cat.# 1801), 10% FBS, and 1% Pen/Strep. The ATP content assay kit (PerkinElmer, Cat.# 6016731) was used to determine cell viability. The reagent was reconstituted and prepared as described by the manufacturer. Cells were seeded in 384- or 1536-well assay plates and cultured at 37 C with 5% CO2 for 16 to 20 hours. The typical cell seeding density in the 1536-well plate assay is 350 cells/well in 3 ul medium for astrocytes in the tissue cultured treated/PDL coated plates. Compounds were added to cells and incubated for one hour before addition of ZIKV solution to cells (2 FFU/cell). After incubation at 37 C with 5% CO2 for 72 hours, the reagent mixture of the ATP content assay kit was added to each well, followed by incubation at room temperature for 10 minutes. The luminescence intensity of the assay plates was measured using a ViewLux plate reader (PerkinElmer). […] The percentage inhibitions of the decreased cell viability by small molecule inhibitors were then calculated.

Row | Compound | Potency | protection from virus-induced death
1 | OCc1ccc(-c2ccc(-c3ccc(CO)s3)o2)s1 | inconclusive: 5.48 µM [activator, single point] | –
2 | COc1cc2nc(-c3ccc(N4CCN(C)CC4)cc3)nc(NCCN3CCOCC3)c2cc1OC | inconclusive: 6.15 µM [activator, single point] | –
3 | O=C1c2ccccc2C(=O)c2c(NCCc3ccc(O)cc3)ccc(NCCc3ccc(O)cc3)c21 | inconclusive: 4.89 µM [activator, full curve] | –
4 | CC(C)(C)COc1ccc(-n2cc(C(=O)O)cn2)cc1C#N | inconclusive: 63.1 µM [activator, single point] | –
5 | Oc1cc(O)cc(/C=C/c2ccc(O)c(O)c2)c1 | inconclusive: 17.3 µM [activator, single point] | –
6 | CCN1/C(=C/C=C/c2sc3ccccc3[n+]2CC)Sc2ccccc21 | inconclusive: 12 µM [activator, partial curve, poor fit] | –
7 | CC(C)[C@H]1C(=O)N[C@H](CO)Cc2c[nH]c3cccc(c23)N1C | active: 1.09 µM | –
8 | CC(=O)Oc1cccc2c1C(=O)c1c(OC(C)=O)cc(C(=O)O)cc1C2=O | inconclusive: 30.8 µM [activator, single point] | –
9 | CC(=O)Nc1ccc([C@H](C)C(=O)Nc2ncc(C(C)C)s2)cc1 | active: 4.89 µM | –
10 | C[C@H](NC(=O)C(=O)Nc1ccccc1C(C)(C)C)C(=O)N[C@@H](CC(=O)O)C(=O)COc1c(F)c(F)cc(F)c1F | active: 3.88 µM | –
11 | CC(=O)OC(C)OC(=O)C(C)c1ccc(-c2ccccc2)c(F)c1 (centres undefined) | – | inactive: 3.37%
12 | CC[n+]1c(-c2ccccc2)c2cc(N)ccc2c2ccc(N)cc21 | active: 1.95 µM | –
13 | O=C(Nc1ccc([N+](=O)[O-])cc1Cl)c1cc(Cl)ccc1O | inconclusive: 1.73 µM [activator, single point] | –
14 | COP(=S)(OC)SCN1C(=O)c2ccccc2C1=O | – | inactive: -5.96%
15 | CCC(C)SSc1ncc[nH]1 (centres undefined) | inconclusive: 5.48 µM [activator, partial curve, poor fit] | –
16 | CCCCC1C(=O)N(c2ccccc2)N(c2ccc(O)cc2)C1=O (centres undefined) | inconclusive: 1.38 µM [activator, single point] | –
17 | CN(C)c1ccc2cc(C(=O)N[C@@H](CCCN=C(N)CCl)C(=O)NCc3ccccc3)ccc2c1 | inconclusive: 6.15 µM [activator, single point] | –
18 | COc1ccnc2c1CCCCC2S(=O)c1nc2ccccc2[nH]1 (centres undefined) | inconclusive: 30.8 µM [activator, single point] | –
19 | COc1cccc2c1C(=O)c1c(O)c3c(c(O)c1C2=O)C[C@@](O)(C(=O)CO)CC3OC1CC(N2CCOC(OC)C2)C(O)C(C)O1 (some centres undefined) | active: 0.436 µM | –
20 | CO[C@H]1C(=O)[C@]2(C)[C@@H](OC)C[C@H]3OC[C@@]3(OC(C)=O)[C@H]2[C@H](OC(=O)c2ccccc2)[C@]2(O)C[C@H](OC(=O)[C@H](O)[C@@H](NC(=O)OC(C)(C)C)c3ccccc3)C(C)=C1C2(C)C | – | inactive: 6.47%
21 | Nc1ccc(-c2ccc3ccccc3n2)cc1 | inconclusive: 6.15 µM [activator, single point] | –
22 | O=C(CS)Nc1ccccc1 | inconclusive: 21.8 µM [activator, single point] | –
23 | O=S(=O)(O)c1ccc2nc(-c3ccccc3)[nH]c2c1 | – | inactive: -6.93%
24 | CC(=O)Oc1ccccc1C(=O)Nc1ncc([N+](=O)[O-])s1 | inconclusive: 31.6 µM [activator, partial curve] | –
25 | Nc1cc(C(F)(F)F)ccc1S | inconclusive: 17.3 µM [activator, single point] | –
26 | N#C/C(=C\c1ccc(O)c(O)c1)C(=O)Nc1ccccc1 | – | inactive: 8.43%
27 | S=C(SSC(=S)N1CCCCC1)N1CCCCC1 | active: 7.74 µM | –
28 | CC[C@@]1(O)C[C@H](O[C@H]2C[C@H](N(C)C)[C@H](O[C@H]3C[C@H](O)[C@H](O[C@H]4CCC(=O)[C@H](C)O4)[C@H](C)O3)[C@H](C)O2)c2c(cc3c(c2O)C(=O)c2c(O)cccc2C3=O)[C@@H]1C(=O)OC | inconclusive: 21.8 µM [activator, single point] | –
29 | C=C1C(=O)[C@@]23C(CC[C@@H]1[C@H]2O)[C@@]12CO[C@]3(O)[C@@H](O)[C@@H]1C(C)(C)CC[C@@H]2O (some centres undefined) | inconclusive: 5.48 µM [activator, single point] | –

Compounds shown so far that have a Cl atom, in the order listed:
Row | Compound | Potency | protection from virus-induced death
13 | O=C(Nc1ccc([N+](=O)[O-])cc1Cl)c1cc(Cl)ccc1O | inconclusive: 1.73 µM [activator, single point] | –
17 | CN(C)c1ccc2cc(C(=O)N[C@@H](CCCN=C(N)CCl)C(=O)NCc3ccccc3)ccc2c1 | inconclusive: 6.15 µM [activator, single point] | –
